In the supplement of paper PMC5355238:
Counter-ions that a name gives are not always drawn. The list shows a part of the results. Most values lie at the level of the controls, where differences are scatter.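 Reh, a human leukemia cell line, is read out by flow cytometry as the median γH2AX antibody signal in S-phase cells; the score counts standard deviations from the median difference of each paired plate set. Scores above 2.5 were candidate hits; scores below -2 mark compounds lowering MK1775-induced damage.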

system: Reh; experiment: Z' of S-phase gammaH2AX difference (drug + MK1775 minus drug alone) (Z-score); higher = stronger synergistic S-phase DNA damage with MK1775; details: MK1775 concentration 400 nM; first compound 10 µM; 4 h

Structure (SMILES) | Z' of S-phase gammaH2AX difference (Z-score)
CNC(=O)c1cc(Oc2ccc(NC(=O)Nc3ccc(Cl)c(C(F)(F)F)c3)cc2)ccn1 [Sorafenib (Nexavar)] + C=CCn1c(=O)c2cnc(Nc3ccc(N4CCN(C)CC4)cc3)nc2n1-c1cccc(C(C)(C)O)n1 [MK1775] | inactive: -0.478
COc1ccccc1N1CCN(CCN(C(=O)c2ccc(I)cc2)c2ccccn2)CC1 [p-MPPI hydrochloride] + C=CCn1c(=O)c2cnc(Nc3ccc(N4CCN(C)CC4)cc3)nc2n1-c1cccc(C(C)(C)O)n1 [MK1775] | inactive: 0.577
OCCn1cc(-c2cnc3nnn(Cc4ccc5ncccc5c4)c3n2)cn1 + C=CCn1c(=O)c2cnc(Nc3ccc(N4CCN(C)CC4)cc3)nc2n1-c1cccc(C(C)(C)O)n1 [MK1775] | inactive: 0.154
OC1(c2ccc(Cl)cc2)CCN(Cc2c[nH]c3ccccc23)CC1 + C=CCn1c(=O)c2cnc(Nc3ccc(N4CCN(C)CC4)cc3)nc2n1-c1cccc(C(C)(C)O)n1 [MK1775] | inactive: -0.485
COc1ccc2cc([C@H](C)C(=O)O)ccc2c1 [(-)-Naproxen sodium] + C=CCn1c(=O)c2cnc(Nc3ccc(N4CCN(C)CC4)cc3)nc2n1-c1cccc(C(C)(C)O)n1 [MK1775] | inactive: -0.15
Nc1cc(N2CCCCC2)nc(N)[n+]1[O-] [Minoxidil] + C=CCn1c(=O)c2cnc(Nc3ccc(N4CCN(C)CC4)cc3)nc2n1-c1cccc(C(C)(C)O)n1 [MK1775] | inactive: -0.141
Nc1ncnc2c1ncn2[C@@H]1O[C@H](COP(=O)(O)OP(=O)(O)OP(=O)(O)OP(=O)(O)OC[C@@H]2O[C@H](n3cnc4c(N)ncnc43)C(O)[C@@H]2O)[C@H](O)C1O (stereo not given in full) [P1,P4-Di(adenosine-5')tetraphosphate triammonium] + C=CCn1c(=O)c2cnc(Nc3ccc(N4CCN(C)CC4)cc3)nc2n1-c1cccc(C(C)(C)O)n1 [MK1775] | inactive: -1.27
CCOc1cc(C(=O)Nc2ccc(Cl)c(-c3nc4ccccc4[nH]3)c2)cc(OCC)c1OCC + C=CCn1c(=O)c2cnc(Nc3ccc(N4CCN(C)CC4)cc3)nc2n1-c1cccc(C(C)(C)O)n1 [MK1775] | inactive: -0.0554
C=C[C@H]1CN2CC[C@H]1C[C@H]2[C@H](O)c1ccnc2ccc(OC)cc12 [Quinine sulfate] + C=CCn1c(=O)c2cnc(Nc3ccc(N4CCN(C)CC4)cc3)nc2n1-c1cccc(C(C)(C)O)n1 [MK1775] | inactive: -0.679
O=c1n(CCCN2CCN(c3cccc(Cl)c3)CC2)nc2ccccn12 [Trazodone hydrochloride] + C=CCn1c(=O)c2cnc(Nc3ccc(N4CCN(C)CC4)cc3)nc2n1-c1cccc(C(C)(C)O)n1 [MK1775] | inactive: 0.0988
